Experimental data published in PMC5691892.
These are yes or no findings as the source states them, for the method shown. Binding seen in cells or lysates may run through a third protein. For some assays here: Binding calls can cover weak binding; strength is not graded here.

Legend:
[1] = target: Mouse ICN1^ΔANK6-2531 (mouse); assay: co-IP; ectopically expressed proteins in Jurkat cells (WT, CBLB knockdown clone sh1, or VAV1-/- cells expressing Vav1 proteins), 36 hr after electroporation; lysis in 10 mM Tris-HCl pH 8.0, 150 mM NaCl, 1% Triton X-100; 2 hr at 4°C with antibodies to Cbl-b or ICN1, Gammabind G-Sepharose; immunoblot
[2] = target: Mouse ICN1^ΔANK7-2531 (mouse); assay: as above

- binding [1]: no binding
- binding [2]: binds
B1: Mouse Vav1^WT (ectopically expressed) (protein, UniProt P27870 1-845)
chain: MELWRQCTHWLIQCRVLPPSHRVTWEGAQVCELAQALRDGVLLCQLLNNLLPQAINLREVNLRPQMSQFLCLKNIRTFLSTCCEKFGLKRSELFEAFDLFDVQDFGKVIYTLSALSWTPIAQNKGIMPFPTEDSALNDEDIYSGLSDQIDDTAEEDEDLYDCVENEEAEGDEIYEDLMRLESVPTPPKMTEYDKRCCCLREIQQTEEKYTDTLGSIQQHFMKPLQRFLKPQDMETIFVNIEELFSVHTHFLKELKDALAGPGATTLYQVFIKYKERFLVYGRYCSQVESASKHLDQVATAREDVQMKLEECSQRANNGRFTLRDLLMVPMQRVLKYHLLLQELVKHTQDATEKENLRLALDAMRDLAQCVNEVKRDNETLRQITNFQLSIENLDQSLANYGRPKIDGELKITSVERRSKTDRYAFLLDKALLICKRRGDSYDLKASVNLHSFQVRDDSSGERDNKKWSHMFLLIEDQGAQGYELFFKTRELKKKWMEQFEMAISNIYPENATANGHDFQMFSFEETTSCKACQMLLRGTFYQGYRCYRCRAPAHKECLGRVPPCGRHGQDFAGTMKKDKLHRRAQDKKRNELGLPKMEVFQEYYGIPPPPGAFGPFLRLNPGDIVELTKAEAEHNWWEGRNTATNEVGWFPCNRVHPYVHGPPQDLSVHLWYAGPMERAGAEGILTNRSDGTYLVRQRVKDTAEFAISIKYNVEVKHIKIMTSEGLYRITEKKAFRGLLELVEFYQQNSLKDCFKSLDTTLQFPYKEPERRAISKPPAGSTKYFGTAKARYDFCARDRSELSLKEGDIIKILNKKGQQGWWRGEIYGRIGWFPSNYVEEDYSEYC
